In PubChem BioAssay AID504834 (National Center for Advancing Translational Sciences (NCATS), 2011):
About 22,000 (6.9%) of roughly 320,000 compounds were called active. This list was built around the results that the source calls inconclusive (neither active nor inactive); the mix of calls is not that of the screen. Calls follow the shape of the dose curve; as a rule, active = well fitted inhibition curve with a large enough effect; inconclusive = small, poorly fitted or top-dose-only effect, or another doubt; inactive = no such curve, though single readings can be large or run the other way. Potencies beside an inconclusive call are fits to weak or partial responses and may not hold up.

Assay: Primary qHTS for delayed death inhibitors of the malarial parasite plastid, 96 hour incubation
Conditions: P. falciparum luciferase reporter growth; series mostly up to 28.7 µM; activity change, negative = inhibition: at the top concentration
Method in brief: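 Erythrocytes infected with luciferase-expressing P. falciparum were dispensed at 2% hematocrit and 0.05% parasitemia (final), then incubated with compounds 96 hours at 37 C in 5% CO2. Luminescence after detection reagent addition reported growth.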
% is scaled to controls: 0 for no effect and ±100 for the full control effect; potency is read from the fitted curve at half-maximal effect.

| SMILES | activity change, negative = inhibition | Potency |
| --- | --- | --- |
| CC(=O)Nc1ccc(NC(=O)CSc2ccc(-c3ccc(-n4ccnc4)cc3)nn2)cc1 | inactive: 11.1% | – |
| O=C(CNC(=S)N(Cc1ccccc1F)C1CCCCC1)NCC1CCCO1 (stereo not drawn) | inactive: 10.7% | – |
| COC(=O)c1nnn(-c2nonc2N)c1CSc1nc2ccccc2s1 | inactive: -5.46% | – |
| CCn1cc(C(=O)N[C@H](C(=O)NCCN2CCOCC2)C(C)C)c(=O)c2cc3c(cc21)OCO3 | inactive: 117% | – |
| O=C(CSc1nccc(=O)[nH]1)N1c2ccccc2CCc2ccccc21 | – | inconclusive: 0.262 µM [inhibitor, full curve, poor fit] |
| CC(C)Cn1nc(NS(=O)(=O)c2cccc3nonc23)c2cc3ccccc3nc21 | – | inconclusive: 9.28 µM [inhibitor, single point] |
| Cc1ccccc1Nc1nnc(SCC(=O)c2c(N)n(C3CC3)c(=O)[nH]c2=O)s1 | – | inconclusive: 4.65 µM [inhibitor, partial curve] |
| CCCNC(=O)Nc1ccc(C)cc1C | – | inconclusive: 0.0041 µM [inhibitor, full curve, poor fit] |
| COc1ccc(C=C(c2nc3ccccc3s2)c2nc3ccccc3s2)cc1O | – | inconclusive: 18.5 µM [inhibitor, single point] |
| C[C@@H]1C=CC(=O)O[C@@H]1c1ccc(Cl)cc1 | – | inconclusive: 18.5 µM [inhibitor, single point] |
| CC(NCC(=O)Nc1cc(S(=O)(=O)N2CCOCC2)ccc1Cl)c1ccc(Cl)cc1Cl (stereo not drawn) | – | inconclusive: 10.4 µM [inhibitor, single point] |
| O=C(Nc1ccc2oc(-c3cccnc3)nc2c1)c1ccc(Br)o1 | – | inconclusive: 18.5 µM [inhibitor, partial curve, poor fit] |
| Cc1noc(C)c1S(=O)(=O)N(CC(=O)NC1CCCC1)c1ccc(C(C)C)cc1 | inactive: -14.3% | – |
| CC(C)Cn1nc(NC(=O)c2ccco2)c2cc3ccccc3nc21 | – | inconclusive: 3.29 µM [inhibitor, full curve, poor fit] |
| CC(C)c1ccc(NC(=O)C(c2ccccc2)N2CC(=O)Nc3ccccc32)cc1 (stereo not drawn) | – | inconclusive: 18.5 µM [inhibitor, single point] |
| Cc1ccc(CNC(=O)c2ccc(N3CCC4(CC3)CC(c3ccccc3)=NO4)c(NC(=O)c3ccc(Br)cc3)c2)cc1 | – | inconclusive: 3.29 µM [inhibitor, full curve] |
| O=C(CSc1ncn[nH]1)c1ccc2c(c1)OCO2 | inactive: 25.7% | – |
| O=C1OCC2=C1C(c1ccc(F)cc1)CC(=O)N2c1ccccc1 (stereo not drawn) | inactive: 37.3% | – |
| Cc1ccc(CN(C(=O)COc2cccc(C)c2C)C2CCS(=O)(=O)C2)o1 (stereo not drawn) | inactive: 89.8% | – |
| O=C(Nc1ccc(O)c(-c2nc3ccccc3s2)c1)C1=COCCO1 | inactive: 56.8% | – |
| O=[N+]([O-])c1cccc(COc2ncnc3cc([N+](=O)[O-])ccc23)c1 | – | inconclusive: 13.1 µM [inhibitor, single point] |
| CCCCOC(=O)Nc1nc(C)c(C(=O)OCC)s1 | – | active: 1.47 µM |
| O=C(Cc1cn2ccsc2n1)OCc1nc2ccccc2s1 | inactive: 0% | – |
| CCc1ccc(OCC(=O)Nc2cccc3nsnc23)cc1 | – | inconclusive: 3.7 µM [inhibitor, full curve, poor fit] |
| CC(C)(C)C(=O)NC(=S)Nc1ccccc1C(=O)NC1CCCCC1 | inactive: 86.7% | – |

| SMILES | activity change, negative = inhibition | Potency |
| --- | --- | --- |
| COc1cc2c(cc1NC(=O)CN(C)Cc1nc3ccccc3c(=O)[nH]1)oc1ccccc12 | – | inconclusive: 11.7 µM [inhibitor, partial curve, poor fit] |
| CN(C)C(=O)c1ccc(Oc2ccc(C(=O)N(C)C)cc2)cc1 | – | active: 1.85 µM |
| Cc1cccc(-[n+]2c(-c3cccc(Br)c3)[nH]c3nc4ccccc4nc32)c1 | – | inconclusive: 0.0026 µM [inhibitor, full curve, poor fit] |
| Clc1cccc(CN2C3=NCCCN3c3ccccc32)c1 | – | inconclusive: 18.5 µM [inhibitor, single point] |
| Cc1ccc(C)c(NC(=O)C2CC3c4ccccc4C2c2ccccc23)c1 (stereo not drawn) | – | inconclusive: 0.522 µM [inhibitor, full curve, poor fit] |
| COc1ccc(N2CCn3c2nc2c3c(=O)n(CCc3ccccc3)c(=O)n2C)c(OC)c1 | – | active: 11.7 µM |
| CCN(CC)C(=O)CSc1nnc2sc3ccccc3n12 | – | inconclusive: 6.57 µM [inhibitor, partial curve] |
| Cc1cccn2c(CNCC3OCCc4ccccc43)c(C(=O)N3CCCCC3)nc12 (stereo not drawn) | – | inconclusive: 18.5 µM [inhibitor, single point] |
| Cc1cc(C)cc(OCC(=O)N(Cc2ccco2)c2c(N)n(Cc3ccccc3)c(=O)[nH]c2=O)c1 | – | inconclusive: 14.7 µM [inhibitor, single point] |
| CCOC(=O)c1ccc(NC(=O)Nc2ncccc2C)cc1 | inactive: -0.671% | – |
| O=C(Cc1cc(=O)[nH]c(=O)[nH]1)NCc1ccccc1 | inactive: 5.43% | – |
| CCCCNC(=O)Cn1nc([N+](=O)[O-])c([N+](=O)[O-])c1C | – | inconclusive: 14.7 µM [inhibitor, partial curve, poor fit] |
| CC(NC(=O)c1cc(-c2cccnc2)nc2ccc(Br)cc12)C1CCCO1 (stereo not drawn) | – | inconclusive: 18.5 µM [inhibitor, single point] |
| N#C/C(C(=S)Nc1ccccc1)=C1/NN=C(N2CCOCC2)N1c1ccccc1 | – | inconclusive: 3.29 µM [inhibitor, partial curve] |
| Cc1cccc(-n2cnc(C(=O)NC3CCCCCC3)c2)n1 | inactive: 240% | – |
| CC(C)(C#N)NC(=O)C1CCCN1S(=O)(=O)c1ccc2ccccc2c1 (stereo not drawn) | inactive: 41.4% | – |
| CCN1C(=O)CC(n2c(C)nc3ccccc32)C1=O (stereo not drawn) | inactive: 11% | – |
| Cc1ccccc1OCC(O)Cn1c(NCc2ccco2)nc2c1c(=O)n(C)c(=O)n2C (stereo not drawn) | – | inconclusive: 14.7 µM [inhibitor, single point] |
| CCOC(=O)N1CCN(C(=O)c2cccc(S(=O)(=O)Nc3ccc(Br)cc3)c2)CC1 | – | inconclusive: 13.1 µM [inhibitor, partial curve, poor fit] |
| Cc1nc(NC(=O)C(C)Oc2cccc(Cl)c2)sc1C(=O)N(C)C (stereo not drawn) | inactive: 12.9% | – |
| COC(=O)c1ccc(OC(=O)c2ccc(OC)cc2)c(OC)c1 | inactive: 19.5% | – |
| CCOC(=O)c1ccc(NC(=O)C2CC2)cc1 | – | inconclusive: 10.4 µM [inhibitor, single point] |
| COc1cc(CNCCCN2CCOCC2)cc(Br)c1OCC(=O)N1CCCCC1 | inactive: 10.3% | – |
| COc1ccc(-c2ccc3c(c2)S(=O)(=O)c2cccc(C(=O)NC4CC4)c2C3=O)cc1OC | – | inconclusive: 18.5 µM [inhibitor, single point] |
| COc1ccc(CNC[C@@H](CCCCN(C)Cc2ccc(OC)cc2)N2C[C@H](c3ccccc3)N(CCc3ccc(Cl)c(Cl)c3)C(=O)C2=O)cc1 | – | active: 2.33 µM |

| SMILES | activity change, negative = inhibition | Potency |
| --- | --- | --- |
| CCCn1nc(NS(=O)(=O)c2ccccc2)c2cc3cc(C)ccc3nc21 | – | inconclusive: 9.28 µM [inhibitor, single point] |
| COc1ccc(-c2[nH]ncc2/C=N\NS(=O)(=O)c2ccccc2)cc1OC | inactive: 2.06% | – |
| Oc1[nH]c2ccccc2c1N=NC(=S)NCC1CCCO1 (stereo not drawn) | – | inconclusive: 0.0029 µM [inhibitor, full curve, poor fit] |
| CCOC(=O)c1c(NC(=O)c2ccc(Br)o2)sc2c1CCCC2 | – | inconclusive: 0.208 µM [inhibitor, full curve, poor fit] |
| COc1ccc(C(=O)/C=C/c2ccc(OC)c(CN3CCOCC3)c2)cc1 | inactive: 24.7% | – |
| O=C(O)CCCCCNC(=O)Cn1nnc2ccccc2c1=O | inactive: 22.3% | – |
| CCCn1nc2cc(C(=O)NC3CCc4ccccc43)ccc2c1OCC (stereo not drawn) | – | inconclusive: 2.94 µM [inhibitor, full curve] |
| CC(Sc1ccccc1)C(=O)NCCc1ccccc1 (stereo not drawn) | – | active: 9.28 µM |
| Cc1ccc2c(c1)NC(=O)C(CC(=O)NCCCN1CCN(c3cc(Cl)ccc3C)CC1)O2 (stereo not drawn) | – | inconclusive: 18.5 µM [inhibitor, single point] |
| Cc1ccc(S(=O)(=O)Nc2ccc(C(=O)NCCCn3ccnc3)cc2)cc1[N+](=O)[O-] | – | inconclusive: 0.0029 µM [inhibitor, full curve, poor fit] |
| COc1ccc(/C=C2\N=C(c3c(-c4ccccc4)noc3C)OC2=O)cc1OC | – | inconclusive: 0.037 µM [inhibitor, full curve, poor fit] |
| Cc1cc(C)c(NC(=O)C2CSCCS2)c(C)c1 (stereo not drawn) | inactive: 94% | – |
| CCC(=O)c1cc2c(cc1NC(=O)C(C)C)OCCO2 | – | active: 2.33 µM |
| COc1ccc(CNC(=O)CCSCc2cccc(Cl)c2)cc1 | inactive: 76.6% | – |
| Cc1ccc(O)c(Cn2nnc3ccccc32)c1 | – | inconclusive: 18.5 µM [inhibitor, single point] |
| Cc1c(NC(=O)CN2C(=O)NC(C)(c3ccccc3Cl)C2=O)c(=O)n(-c2ccccc2)n1C (stereo not drawn) | inactive: 27.9% | – |
| CC(=O)c1cccc(Nc2nc(-c3cccc([N+](=O)[O-])c3)cs2)c1 | inactive: 55.4% | – |
| Cc1ccc(S(=O)(=O)N2CCCCC2)cc1NC(=O)Cn1c(=O)cnc2ccccc21 | – | inconclusive: 13.1 µM [inhibitor, partial curve, poor fit] |
| CC(Oc1ccccc1Cl)C(=O)Nc1ccc(S(=O)(=O)Nc2nccs2)cc1 (stereo not drawn) | inactive: 3.64% | – |
| Cc1cc(N2CCCC2)n2nc(C)nc2n1 | inactive: -10.4% | – |
| CN(C)CCCN=Cc1c(O)n(Cc2ccc3c(c2)OCO3)c(=O)c2ccccc12 | – | inconclusive: 18.5 µM [inhibitor, partial curve, poor fit] |
| CN(C)CC(O)COC(c1ccc(Cl)cc1)c1ccc(Cl)cc1 (stereo not drawn) | – | inconclusive: 11.7 µM [inhibitor, single point] |
| COc1ccc(CNC(=O)c2nnn(CC(=O)Nc3cc(C)cc(C)c3)c2N)cc1 | – | inconclusive: 1.47 µM [inhibitor, full curve, poor fit] |

Three structures from above, arranged by formula weight, falling.

| SMILES | activity change, negative = inhibition | Potency |
| --- | --- | --- |
| O=C(CSc1nccc(=O)[nH]1)N1c2ccccc2CCc2ccccc21 | – | inconclusive: 0.262 µM [inhibitor, full curve, poor fit] |
| COC(=O)c1ccc(OC(=O)c2ccc(OC)cc2)c(OC)c1 | inactive: 19.5% | – |
| CCOC(=O)c1ccc(NC(=O)C2CC2)cc1 | – | inconclusive: 10.4 µM [inhibitor, single point] |
